A short description of the test: qHTS Assay for Lipid Storage Modulators in Drosophila S3 Cells.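 On cell number change: cells counted by Cell Tracker Red CMTPX staining in the red channel.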 The note with it: BODIPY lipid droplet fluorescence, 18-24 h; for cell number change: measured here: cell count max response, cells fed with added oleic acid. A digest of the protocol:
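Laser-scanning cytometry quantifies lipid droplet accumulation (500–530 nm total intensity; droplet/cell object ratio) in oleic acid-fed (400 uM added) Drosophila S3 cells treated with a concentration series. 20 uM Triacsin C defined 100% inhibition.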
For orientation: qHTS replaces the single test concentration by a dilution series.

[1] abbreviates: measured here: cell number channel AC50, cells fed with added oleic acid.
Where [2] appears, read: measured here: lipid fluorescence (Fed channel) AC50, cells fed with added oleic acid.

The list shows a part of the results. These are further read-outs of the screen, such as a control signal, another cell line or another target. No call is given for them. Compounds called inactive in the main read-out are mostly missing here. Potencies come from curve fits of mixed quality, noted in brackets.

The AC50 is the concentration giving half of the maximal activity seen. A low value points to greater potency.

On to `CC1CN(Cc2ccc(Cl)cc2Cl)CC(C)O1` (stereo not drawn), for which the cell number change is -80.4%. Moreover, the AC50 under setting [1] was 8.2 µM [falling, partial curve]. Further, under setting [2], the AC50 was 0.651 µM [falling, full curve, poor fit]. On to `Cc1cc(N2CCCCC2)c(F)cc1[N+](=O)[O-]`, for which the AC50 under setting [1] is 6.51 µM [falling, single point].

With `CCN(Cc1ccccc1)C(=O)CN1C(=O)NC(CC)(c2ccc(F)cc2)C1=O` (stereo not drawn), the cell number change is 3.6%. Moreover, under setting [2], the AC50 is 29.1 µM [rising, partial curve].

On to `O=C(Cn1nnc2ccccc21)Nc1ccc(Cl)cn1`, for which the cell number change worked out at 80.5%. Also, the AC50 under setting [1] is 23.1 µM [rising, partial curve]. As for `CC1(C)Cc2c(ccc3ccccc23)/C(=C/C(=O)N2CCCCC2)N1`, the cell number change is -11.4%. The AC50 under setting [1] was 3.66 µM [rising, single point]. `CCOc1ccc(NC(=NCc2ccc3c(c2)OCO3)SC2CC(=O)N(c3ccc(C(=O)O)cc3)C2=O)cc1` (stereo not drawn): the cell number change turned out to be 4.55%. Under setting [2], the AC50 was 0.0058 µM [rising, full curve, poor fit]. `COc1ccc(OC)c(S(=O)(=O)N2CCCC(C(=O)N3CCCCCC3)C2)c1` (stereo not drawn): under setting [2], the AC50 was 29.1 µM [falling, single point]. `CCc1nnc(NC(=O)CCN2C(=O)c3ccccc3C2=O)s1`: the cell number change is 17.4%. Besides, under setting [1], the AC50 was 0.146 µM [rising, full curve, poor fit]. With `Cc1cc(NC(=O)NCc2ccccc2)c(=O)n(Cc2ccccc2F)c1`, the cell number change stood at 1.69%. Also, the half-maximal activity concentration (AC50) under setting [2] is 20.6 µM [falling, single point].

For the compound `Cc1cc2oc(=O)cc(CN3CCN(S(=O)(=O)c4cccs4)CC3)c2cc1C`, the cell number change is 33.3%. Under setting [1], the AC50 was 29.1 µM [rising, single point]. Take `CCOc1ccc(CCNC(=O)COC(=O)CNC(=O)c2ccc(Br)o2)cc1OCC`: the cell number change was -10.4%. With `NC(=O)C1CCCN1S(=O)(=O)c1ccc2ccccc2c1` (stereo not drawn), the cell number change is -20.2%. Further, the AC50 under setting [2] was 29.1 µM [falling, single point]. For `CCOC(=O)C1CCCN(C(=S)Nc2cc(C)cc(C)c2)C1` (stereo not drawn), the cell number change was determined as 35.2%. On the same count and under the same terms, the figure for `COc1cc(/C=N\Nc2nc3ccccc3[nH]2)cc(OC)c1OC` is -15.6%. For `Cc1[nH]c2ccccc2c1C(=O)C(=O)N1CCOCC1`, the cell number change came out at 37.6%. In addition, under setting [1], the AC50 is 18.4 µM [rising, partial curve, poor fit]. For the compound `O=C(Nc1cccnc1Cl)c1cc(-c2cccc(O)c2)on1`, the cell number change was 34.9%. Under setting [1], the AC50 is 9.2 µM [rising, partial curve, poor fit]. Turning to `Cc1ccc(NC(=O)CCCC(=O)OC(C)C(=O)c2ccccc2)cc1` (stereo not drawn), the cell number change was 3.95%.

On to `Cc1ccc(/C=N/N2C(=S)SC(C)(C)C2N(O)C(=O)Nc2ccc([N+](=O)[O-])cc2)cc1` (stereo not drawn), for which the cell number change was -20.5%. Under setting [2], the AC50 was 14.6 µM [falling, partial curve, poor fit]. Regarding `CN(C)C=NC(=O)c1cc(C(=O)c2ccc(F)cc2)c[nH]1`, the cell number change is -41.7%. For the same compound, the AC50 under setting [1] was 0.231 µM [falling, full curve]. Also, the AC50 under setting [2] was 0.231 µM [falling, full curve]. In the case of `O=C(CCCN1C(=O)/C(=C/c2cccc(Br)c2)SC1=S)Nc1cccnc1`, the cell number change is -14.8%. For the compound `CC(=O)N1CCCc2cc(S(=O)(=O)CCC(=O)N3CCN(c4cccc(C)c4)C(C)C3)ccc21` (stereo not drawn), the cell number change amounted to 12.4%. Besides, the AC50 under setting [1] was 0.0231 µM [rising, full curve, poor fit]. `CCn1cc(CN2CCCC(C(=O)Nc3cccc(-n4cccn4)c3)C2)c(C)n1` (stereo not drawn): the cell number change turned out to be 6.93%. Also, under setting [1], the AC50 was 6.51 µM [rising, single point]. For `CC(C(=O)N1CCOCC1)N1C(=O)c2cccc3cccc(c23)C1=O` (stereo not drawn), the cell number change is -21.7%. For the same compound, under setting [1], the AC50 is 2.06 µM [falling, single point]. Under setting [2], the AC50 was 2.59 µM [falling, partial curve]. In the case of `Cc1cc(NC(=O)CSc2nnc(-c3ccccc3C)n2C)no1`, the cell number change was found to be 6.08%. The AC50 under setting [2] is 29.1 µM [falling, single point]. Regarding `Cc1c(N2C(=O)C3C4C=CC(C5CC45)C3C2=O)c(=O)n(-c2ccccc2)n1C` (stereo not drawn), the cell number change came to 28.3%. For the same compound, the AC50 under setting [2] was 4.11 µM [falling, single point]. `COc1ccc(S(=O)(=O)N2CCN(C(=O)c3ccc(C)o3)CC2)cc1`: the cell number change amounted to 3.81%. In the case of `C=CCn1c(COc2ccc(OC)cc2)nnc1SC(C)C(=O)NC1CC1` (stereo not drawn), the cell number change was -15.2%. As for `CC1(C)Cc2c(sc(NC(=O)C(=O)NCCCN3CCOCC3)c2C#N)CO1`, the cell number change was -5.01%. Moreover, under setting [2], the AC50 was 0.58 µM [rising, single point]. Regarding `Cc1ccc(-n2c(SCn3nnc4ccccc4c3=O)nnc2-c2cccnc2)c(C)c1`, the cell number change is -25%. The AC50 under setting [2] is 0.0184 µM [rising, full curve, poor fit]. For `COc1ccc(CNC(=O)[C@@H](C)NC(=O)C2CCN(C(=O)[C@@H](N)CCSC)CC2)cc1`, the cell number change is 28.1%. Also, the AC50 under setting [2] is 29.1 µM [rising, single point]. Take `Cc1cccc(NC(=O)c2ccc3nc(N4CCOCC4)sc3c2)c1C`: the cell number change is -25.4%. Moreover, the AC50 under setting [2] is 6.51 µM [rising, single point].

In the case of `Cc1cc(C)c(C(=O)COC(=O)c2cccnc2Cl)c(C)c1`, the cell number change is -25.2%.

Consider `O=C(COc1ccc(Cl)cc1)NCc1nnc2c3ccccc3c(-c3ccccc3)nn12`, for which the cell number change is -25.5%. In addition, the AC50 under setting [2] was 29.1 µM [falling, single point].

Regarding `Nc1ccc(S(=O)(=O)Nc2nccc(/C=C/c3ccc(Cl)cc3)n2)cc1`, the cell number change came out at 66.7%. In addition, the AC50 under setting [1] is 14.6 µM [rising, partial curve, poor fit]. Also, under setting [2], the AC50 was 29.1 µM [rising, single point]. With `CC(/C=C/c1ccco1)=N\NC(=O)c1cccnc1`, the cell number change came to 9.25%. Consider `Fc1ccc2[nH]c3c(NCc4ccccc4)ncnc3c2c1`, for which the cell number change is -64.6%. Besides, under setting [1], the AC50 is 18.4 µM [falling, partial curve]. Besides, under setting [2], the AC50 was 13 µM [falling, partial curve, poor fit].

In the case of `Cc1cccc(NC(=O)CSc2nnc(-c3ccncc3)n2CC2CCCO2)c1` (stereo not drawn), the cell number change was 21.7%. Take `CCOC(=O)c1nc(C)n(-c2ccc([N+](=O)[O-])cc2)n1`: the cell number change is 11.3%. Under setting [2], the AC50 was 0.517 µM [falling, full curve, poor fit]. On to `Cc1cccc(NS(=O)(=O)c2cccc(C(=O)N3CCC3)c2)c1`, for which the cell number change is -4.38%. Moreover, under setting [2], the AC50 was 0.13 µM [rising, full curve, poor fit].

With `COC(=O)c1ccc2c(=O)n(C3CCCCC3)c(SCC#N)nc2c1`, the cell number change came out at 17.7%. For the same compound, the AC50 under setting [2] is 0.58 µM [rising, single point].

The values are drawn from PubChem BioAssay AID2685 (National Center for Advancing Translational Sciences (NCATS), 2010).
